Results are given in words; binding and its absence hold for the method and conditions named. Some results given as binding are weak or reduced against the parent protein; the word gives no strength.

The target in the assay is T1, feline B7-H3 in feline tumor tissue (feline).
T1 sequence: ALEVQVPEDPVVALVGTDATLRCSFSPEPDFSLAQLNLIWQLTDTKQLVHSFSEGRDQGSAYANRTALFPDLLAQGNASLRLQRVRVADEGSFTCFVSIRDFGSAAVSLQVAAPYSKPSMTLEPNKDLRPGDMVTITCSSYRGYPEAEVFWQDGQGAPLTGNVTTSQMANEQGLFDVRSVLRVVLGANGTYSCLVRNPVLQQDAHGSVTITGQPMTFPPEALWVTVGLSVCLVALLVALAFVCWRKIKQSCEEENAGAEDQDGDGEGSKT
Briefly: IHC on feline tumor tissue.

B1: BRCA69D (anti-B7-H3 monoclonal antibody) (antibody, V domains shown)
VH: QVQLQQSGAELARPGASVKLSCKASGYTFTSYWMQWVKQRPGQGLEWIGTIYPGDGDTRYTQKFKGKATLTADKSSSTAYMQLSSLASEDSAVYYCARRGIPRLWYFDVWGAGTTVTVSS
VL: DIQMTQTTSSLSASLGDRVTISCRASQDISNYLNWYQQKPDGTVKLLIYYTSRLHSGVPSRFSGSGSGTDYSLTIDNLEQEDIATYFCQQGNTLPPTFGGGTKLEIK
Regarding B1, the binding entry is “binds”.
